Laboratory results taken from PubChem BioAssay AID2685 (National Center for Advancing Translational Sciences (NCATS), 2010).
The other results are listed elsewhere or left out. The main result of the screen is listed elsewhere. These columns were measured beside it and carry no call. Compounds called inactive in the main read-out are mostly missing here. Potencies come from curve fits of mixed quality, noted in brackets.

Assay: qHTS Assay for Lipid Storage Modulators in Drosophila S3 Cells;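 for cell number change: cells counted by Cell Tracker Red CMTPX staining in the red channel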
Conditions: BODIPY lipid droplet fluorescence, 18-24 h; for cell number change: measured here: cell count max response, cells fed with added oleic acid
How it was run: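 Drosophila S3 cells got compounds at several concentrations plus oleic acid (400 uM solution). Laser-scanning cytometry with 488 nm excitation read lipid droplets at 500-530 nm and cells at 575-640 nm. Percent activity was relative to 20 uM Triacsin C.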

[1] = measured here: lipid fluorescence (Fed channel) AC50, cells fed with added oleic acid
[2] = measured here: cell number channel AC50, cells fed with added oleic acid

Q: Which results are given for `COc1ccccc1N1CCN(C(=O)CCN2C(=O)c3cccc4cccc(c34)C2=O)CC1`?
A: cell number change: 2.99%; AC50 [1]: 20.6 µM [rising, single point]

Q: For `COC(=O)c1nn(-c2ccc(Cl)cc2)c(=O)cc1Sc1ccccn1`, which cell number change is on record?
A: -19.5%

Q: What about the AC50 [1] of the same molecule?
A: 29.1 µM [falling, single point]

Q: What does the source list for `O=c1c(-c2ccc(Br)cc2)coc2c(CN3CCCCC3)c(O)ccc12`?
A: cell number change: -2.78%; AC50 [1]: 29.1 µM [falling, single point]

Q: What does the source list for `O=C(NCC(c1ccco1)N1CCc2ccccc2C1)C(=O)Nc1ccc(F)cc1F` (configuration not stated)?
A: cell number change: 110%; AC50 [2]: 16.4 µM [rising, partial curve]

Q: For `Cc1cc(C)n(-c2nc(NCCCO)c3c4c(sc3n2)CCCC4)n1`, which cell number change is on record?
A: 3.29%

Q: What about the AC50 [1] of the same molecule?
A: 0.651 µM [rising, single point]

Q: With `Cc1cc(=O)c2c(C)ccc(C)c2[nH]1` as the molecule, how does the cell number change read?
A: 9.23%

Q: Which cell number change does the source give for `COc1cc(OC)cc(C(=O)NNc2nc3cc4c(cc3s2)OCO4)c1` here?
A: 39%

Q: What about the AC50 [2] of the same molecule?
A: 1.84 µM [rising, partial curve]

Q: And the AC50 [1]?
A: 6.51 µM [rising, partial curve]

Q: With `CCSc1nc2sc3c(c2c(=O)n1CC)CC(C)(C)OC3` as the molecule, how does the cell number change read?
A: -35.4%

Q: What about the AC50 [2] of the same molecule?
A: 32.6 µM [falling, single point]

Q: What does the source list for `Cc1ccccc1NC(=O)c1cccc(OCc2c(C)noc2C)c1`?
A: cell number change: 1.22%; AC50 [1]: 0.58 µM [rising, full curve]

Q: Which cell number change does the source give for `Cc1oc(-c2cccc(Cl)c2)nc1CN1CCC(C(=O)NCCCN2CC(C)CC(C)C2)CC1` (configuration not stated) here?
A: 11.3%

Q: What about the AC50 [1] of the same molecule?
A: 18.4 µM [rising, partial curve]

Q: Which cell number change does the source give for `Cc1ccccc1C(=O)c1cccn1CC(=O)O` here?
A: 25.3%

Q: What about the AC50 [1] of the same molecule?
A: 0.206 µM [falling, full curve]

Q: Which cell number change does the source give for `O=C(NCc1ccc(F)cc1)Nc1cccc(Cl)c1` here?
A: 26.1%

Q: With `COc1cc(/C=C(\C#N)c2nc3ccc(C)cc3[nH]2)c([N+](=O)[O-])cc1OC` as the molecule, how does the cell number change read?
A: -5.13%

Q: With `Cc1ccccc1CN1C(=O)Nc2ccccc2C(=O)N1C(C)(C)C` as the molecule, how does the cell number change read?
A: -5.46%

Q: What about the AC50 [2] of the same molecule?
A: 0.82 µM [falling, single point]

Q: And the AC50 [1]?
A: 29.1 µM [rising, single point]

Q: For `CCOc1ccc(CN(C(=O)c2oc3cc(C)ccc3c2C)C2CCS(=O)(=O)C2)cc1` (configuration not stated), which cell number change is on record?
A: 53.3%

Q: And the AC50 [2]?
A: 0.731 µM [rising, full curve]

Q: With `CC(=O)Nc1ccc(S(=O)(=O)Nc2ccc3c(c2)CCC3)cc1` as the molecule, how does the cell number change read?
A: 22.1%

Q: For `CCCCC(=O)NC1(C(F)(F)F)NC(=O)N(Cc2ccccc2)C1=O` (configuration not stated), which cell number change is on record?
A: 0.797%

Q: What about the AC50 [1] of the same molecule?
A: 0.00461 µM [rising, full curve, poor fit]

Q: Which AC50 [1] does the source give for `CC(=O)CC(=O)NC(=NC1CCCCC1)Nc1nc(C)cc(C)n1` here?
A: 1.64 µM [rising, partial curve]

Q: Which cell number change does the source give for `CCCN1C(=O)C(Cc2nc3ccccc3c(=O)n2-c2ccccc2)c2ccccc21` (configuration not stated) here?
A: 24.1%

Q: And the AC50 [2]?
A: 4.11 µM [rising, full curve, poor fit]

Q: And the AC50 [1]?
A: 1.16 µM [falling, full curve, poor fit]

Q: Which cell number change does the source give for `CC(C)Cc1nnc(NC(=O)CCC(=O)N2CCN(c3ccccc3F)CC2)s1` here?
A: 12.5%

Q: And the AC50 [1]?
A: 6.51 µM [rising, single point]

Q: Which AC50 [1] does the source give for `Cc1ccc(C(=O)Nc2ncc([N+](=O)[O-])s2)cc1` here?
A: 18.4 µM [falling, partial curve]

Q: What does the source list for `Nc1c(Cl)ncnc1NCc1cccnc1`?
A: AC50 [2]: 0.259 µM [rising, full curve, poor fit]; AC50 [1]: 29.1 µM [rising, single point]

Q: Which cell number change does the source give for `COc1ccc(C)cc1NC(=O)c1ccc2c(O)c(S(=O)(=O)c3ccccc3)c(=O)[nH]c2c1` here?
A: 10.2%

Q: What does the source list for `CSCCC(NS(=O)(=O)c1ccccc1F)C(=O)NCc1cccs1` (configuration not stated)?
A: cell number change: 16.3%; AC50 [1]: 0.651 µM [falling, single point]

Q: Which results are given for `CN(C(=O)CSC1=NCCS1)c1ccccc1`?
A: cell number change: 8.06%; AC50 [1]: 6.51 µM [falling, single point]

Q: Which results are given for `NS(=O)(=O)c1ccc(NC(=S)N2CCN(c3ccccc3Cl)CC2)cc1`?
A: cell number change: 43.1%; AC50 [2]: 3.26 µM [rising, partial curve, poor fit]; AC50 [1]: 0.058 µM [rising, full curve, poor fit]

Q: What does the source list for `COC(=O)/C(=C(O)\C=C\c1ccccc1[N+](=O)[O-])c1nc2ccccc2[nH]1`?
A: cell number change: -16.2%; AC50 [1]: 6.51 µM [rising, single point]

Q: Which results are given for `CCC(C)NC(=O)CCCCCn1c(=O)[nH]c2cc(OC)c(OC)cc2c1=O` (configuration not stated)?
A: cell number change: 7.11%; AC50 [1]: 0.092 µM [falling, full curve, poor fit]

Q: With `Cc1ccc(C)c(N(C)S(=O)(=O)c2cccc3nsnc23)c1` as the molecule, how does the cell number change read?
A: 30.9%

Q: And the AC50 [2]?
A: 25.9 µM [rising, single point]

Q: What about the AC50 [1] of the same molecule?
A: 0.00411 µM [rising, full curve, poor fit]

Q: Which results are given for `CCCCOc1ccc(C(CC(=O)NC)C(=O)O)cc1` (configuration not stated)?
A: cell number change: -27.8%; AC50 [2]: 4.11 µM [falling, full curve, poor fit]; AC50 [1]: 29.1 µM [falling, single point]

Q: For `COc1cccc(OCC(Cn2c(C)nc3ccccc32)OC(C)=O)c1` (configuration not stated), which cell number change is on record?
A: -2.39%

Q: What does the source list for `C/C(=N\NC(=O)c1ccc(N(C)C)cc1)c1ccc(C)cc1C`?
A: cell number change: 15.6%; AC50 [2]: 0.259 µM [rising, partial curve, poor fit]; AC50 [1]: 7.31 µM [rising, partial curve]

Q: Which cell number change does the source give for `Cc1ccc(/C(N)=N/OC(=O)CCC2CCCCC2)cc1` here?
A: -7.53%

Q: What about the AC50 [2] of the same molecule?
A: 2.06 µM [rising, single point]

Q: Which AC50 [2] does the source give for `Cc1ccc(S(=O)(=O)Cc2ccc(C(=O)N3CCN(c4ccc(F)cc4)CC3)o2)cc1` here?
A: 0.58 µM [rising, single point]

Q: What about the AC50 [1] of the same molecule?
A: 1.64 µM [rising, single point]

Q: What does the source list for `COC(=O)c1ccc(COc2ccccc2/C=C(\C#N)C(=O)Nc2ccc(C)cc2)cc1`?
A: cell number change: -33.9%; AC50 [2]: 29.1 µM [falling, single point]; AC50 [1]: 1.84 µM [falling, full curve, poor fit]

Q: Which results are given for `CCn1c(C)cc(C(=O)CSc2nnnn2C2CCCC2)c1C`?
A: cell number change: -4.28%; AC50 [1]: 0.00517 µM [rising, full curve, poor fit]

Q: Which results are given for `O=S(=O)(NCCNS(=O)(=O)c1ccccc1)c1ccccc1`?
A: cell number change: -61.8%; AC50 [2]: 3.66 µM [falling, full curve]; AC50 [1]: 29.1 µM [falling, single point]

Q: For `Cc1nn(Cc2c(Cl)cccc2Cl)c(C)c1C(=O)NCc1ccc(C)n1C`, which cell number change is on record?
A: 82.3%

Q: What about the AC50 [2] of the same molecule?
A: 3.26 µM [rising, full curve]

Q: And the AC50 [1]?
A: 3.26 µM [rising, partial curve]

Q: Which cell number change does the source give for `COc1cc(/C=N/NC(=O)CNC(=O)/C=C/c2ccco2)cc(OC)c1OC` here?
A: -0.427%

Q: What about the AC50 [1] of the same molecule?
A: 0.184 µM [falling, full curve, poor fit]

Q: With `Cc1cc(NC(=O)CSc2ncnc3ccccc23)no1` as the molecule, how does the AC50 [2] read?
A: 1.46 µM [rising, partial curve]

Q: What about the AC50 [1] of the same molecule?
A: 1.16 µM [rising, full curve]

Q: With `COc1ccc(C2=CC(=O)OC(C)(c3ccccc3)O2)cc1` (configuration not stated) as the molecule, how does the cell number change read?
A: 13.9%

Q: What about the AC50 [1] of the same molecule?
A: 29.1 µM [rising, single point]

Q: Which cell number change does the source give for `CCCCCC(=O)Nc1sc(C)c(C)c1C#N` here?
A: -7.06%

Q: For `CC(=O)c1sc(NC(=O)C2CCCN2S(=O)(=O)c2ccccc2F)nc1C` (configuration not stated), which AC50 [1] is on record?
A: 1.3 µM [rising, partial curve]

Q: Which results are given for `COc1ccc(C2(C)NC(=O)N(CC(=O)NC3CCCC3)C2=O)cc1OC` (configuration not stated)?
A: cell number change: -4.53%; AC50 [1]: 6.51 µM [rising, single point]

Q: What does the source list for `Cc1cc(S(=O)(=O)Nc2ccc3c(c2)COC3=O)ccc1F`?
A: cell number change: -20.6%; AC50 [1]: 4.11 µM [falling, full curve]

Q: With `Cc1ccc(NS(=O)(=O)Cc2ccccc2)cc1Cl` as the molecule, how does the cell number change read?
A: -45.5%

Q: And the AC50 [2]?
A: 20.6 µM [falling, partial curve, poor fit]

Q: Which cell number change does the source give for `O=C(CN1C(=O)/C(=C/c2ccccc2)SC1=S)Nc1ncc(Cc2ccccc2)s1` here?
A: 7.35%

Q: And the AC50 [1]?
A: 5.17 µM [rising, full curve]

Q: For `COc1ccc(C(CNC(=O)c2c(C)nn(Cc3ccccc3)c2Cl)N2CCOCC2)cc1` (configuration not stated), which cell number change is on record?
A: 5.08%

Q: And the AC50 [1]?
A: 2.91 µM [rising, partial curve]

Q: Which cell number change does the source give for `COc1ccc([N+](=O)[O-])cc1NC(=O)COC(=O)Cc1cc(OC)c(OC)c(OC)c1` here?
A: -35.6%

Q: What about the AC50 [2] of the same molecule?
A: 2.91 µM [falling, partial curve]

Q: And the AC50 [1]?
A: 5.17 µM [falling, partial curve]

Q: Which cell number change does the source give for `O=C(c1cnccn1)N1CCc2ccccc21` here?
A: -13.8%

Q: And the AC50 [1]?
A: 0.651 µM [rising, full curve, poor fit]

Q: Which cell number change does the source give for `Cc1cccc(C)c1NC(=O)N1CC=CCC1` here?
A: -6.38%

Q: Which results are given for `CN1CCN(c2nc(-c3ccc(Cl)c(Cl)c3)nc3ccccc23)CC1`?
A: cell number change: -15.9%; AC50 [1]: 32.6 µM [falling, single point]

Q: With `CCCc1c(C)nn(C(=O)/C(C#N)=N/Nc2ccccc2[N+](=O)[O-])c1C` as the molecule, how does the cell number change read?
A: -12.4%

Q: What about the AC50 [1] of the same molecule?
A: 0.461 µM [falling, full curve, poor fit]

Q: With `N#Cc1c(N2CCOCC2)nsc1-c1ccc(C(F)(F)F)cc1` as the molecule, how does the AC50 [2] read?
A: 6.51 µM [rising, single point]

Q: What about the AC50 [1] of the same molecule?
A: 4.61 µM [rising, full curve, poor fit]

Q: What does the source list for `O=C(O)CCn1cc(-c2ccc(Cl)cc2)nc1-c1ccc(Cl)nc1`?
A: cell number change: -3.39%; AC50 [1]: 32.6 µM [rising, single point]

Q: What does the source list for `CCOC(=O)C(CC)Sc1cc(C)nc2ccc(OC)cc12` (configuration not stated)?
A: cell number change: 14%; AC50 [2]: 0.206 µM [rising, partial curve, poor fit]; AC50 [1]: 2.06 µM [rising, full curve, poor fit]

Q: With `Cc1ccc(OCCOC(=O)c2cccc(S(=O)(=O)N3CC(C)OC(C)C3)c2)cc1` (configuration not stated) as the molecule, how does the cell number change read?
A: 1.25%

Q: What about the AC50 [1] of the same molecule?
A: 6.51 µM [rising, single point]

Q: Which cell number change does the source give for `COc1cc(N/C(=N/S(=O)(=O)c2ccccc2)c2ccccc2)ncn1` here?
A: 1.72%

Q: And the AC50 [1]?
A: 29.1 µM [rising, single point]
